Assay results as given in US11013716B2, “Method for providing an increased expression of telomerase, brain-derived neurotrophic factor, stromal cell-derived factor-1, CXC chemokine receptor 4, and/or immune regulatory factor of stem cell” (HAWKING BIOLOGICAL TECHNOLOGY CO., LTD, priority 2013, dated 2021).

System: SOD1-G93A transgenic mice
Assay: BBB scale of the hind limbs of SOD1-G93A transgenic mice
Assay type: in vivo
Conditions: 16 mg/kg once daily intraperitoneal; FIG. 3
Protocol: This example used the above SOD1-G93A transgenic mice as the object of study to perform in vivo analysis.
After the mice were treated for 30 days, the hind limbs of the mice were examined by BBB scale (Basso, Beattie, and Bresnahan (BBB) Locomotor Rating Scale). […] BBB scale is used to record the efficiency of the treatments.

## Nc1nc2ccc(OC(F)(F)F)cc2s1 [Riluzole, reference compound]
  Time after which the BBB scale of the hind limbs decreased rapidly: > 125 days
